Data published in article PMC8229726.
Results are given in words; binding and its absence hold for the method and conditions named. For part of these data: Binding seen in cells or lysates may run through a third protein. Some results given as binding are weak or reduced against the parent protein; the word gives no strength.

Chains of the proteins cited; added tags and fusions are not shown.
UniProt P15409: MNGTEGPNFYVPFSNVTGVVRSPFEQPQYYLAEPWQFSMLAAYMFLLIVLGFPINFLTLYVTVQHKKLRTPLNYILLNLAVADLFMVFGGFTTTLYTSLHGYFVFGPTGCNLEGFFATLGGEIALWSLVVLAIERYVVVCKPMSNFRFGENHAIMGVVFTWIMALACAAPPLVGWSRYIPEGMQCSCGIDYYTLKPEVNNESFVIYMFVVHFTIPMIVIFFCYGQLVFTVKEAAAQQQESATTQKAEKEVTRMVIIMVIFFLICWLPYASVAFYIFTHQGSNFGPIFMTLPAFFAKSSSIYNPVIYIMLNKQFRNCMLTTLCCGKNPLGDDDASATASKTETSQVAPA
UniProt P08100: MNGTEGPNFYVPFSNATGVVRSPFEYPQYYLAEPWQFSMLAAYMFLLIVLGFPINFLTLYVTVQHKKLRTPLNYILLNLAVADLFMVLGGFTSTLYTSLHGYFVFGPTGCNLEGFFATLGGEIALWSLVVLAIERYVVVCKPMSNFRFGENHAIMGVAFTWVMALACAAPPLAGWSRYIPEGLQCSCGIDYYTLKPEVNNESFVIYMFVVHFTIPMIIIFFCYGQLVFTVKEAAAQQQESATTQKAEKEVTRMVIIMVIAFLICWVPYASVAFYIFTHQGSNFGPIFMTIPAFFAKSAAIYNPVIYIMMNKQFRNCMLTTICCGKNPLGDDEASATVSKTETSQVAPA
UniProt Q9WTI7: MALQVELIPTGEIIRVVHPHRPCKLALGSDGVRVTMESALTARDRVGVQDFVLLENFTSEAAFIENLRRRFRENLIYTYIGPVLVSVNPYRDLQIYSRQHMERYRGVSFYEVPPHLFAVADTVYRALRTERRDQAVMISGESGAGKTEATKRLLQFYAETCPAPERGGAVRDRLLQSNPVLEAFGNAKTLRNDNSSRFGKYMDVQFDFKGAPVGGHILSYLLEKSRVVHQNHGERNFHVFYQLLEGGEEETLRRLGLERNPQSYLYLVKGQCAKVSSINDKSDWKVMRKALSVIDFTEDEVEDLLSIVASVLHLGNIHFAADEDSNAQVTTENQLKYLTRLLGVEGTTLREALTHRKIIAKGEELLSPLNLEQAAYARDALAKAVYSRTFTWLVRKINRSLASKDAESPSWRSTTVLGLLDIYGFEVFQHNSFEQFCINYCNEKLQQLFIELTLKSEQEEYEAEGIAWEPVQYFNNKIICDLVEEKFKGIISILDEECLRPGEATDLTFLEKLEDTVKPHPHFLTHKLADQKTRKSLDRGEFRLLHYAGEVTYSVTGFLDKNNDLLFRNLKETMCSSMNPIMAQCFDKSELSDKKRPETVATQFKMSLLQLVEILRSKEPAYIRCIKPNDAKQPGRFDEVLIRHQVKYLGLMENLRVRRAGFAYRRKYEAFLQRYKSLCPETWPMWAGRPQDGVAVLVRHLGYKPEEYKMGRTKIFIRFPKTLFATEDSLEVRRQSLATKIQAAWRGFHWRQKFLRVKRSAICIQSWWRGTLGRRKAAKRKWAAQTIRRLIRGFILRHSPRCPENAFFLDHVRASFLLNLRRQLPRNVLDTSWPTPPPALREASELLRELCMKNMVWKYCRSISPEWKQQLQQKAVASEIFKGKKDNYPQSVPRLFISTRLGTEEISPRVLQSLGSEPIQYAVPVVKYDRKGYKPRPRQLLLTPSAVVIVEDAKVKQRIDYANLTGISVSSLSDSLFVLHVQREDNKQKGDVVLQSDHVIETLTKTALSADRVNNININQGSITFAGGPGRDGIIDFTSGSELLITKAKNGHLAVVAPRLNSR

Columns and labels:
[1] = target: rhodopsin, endogenous in mouse retina (mouse (endogenous in retina)) (UniProt P15409); test: co-IP; endogenous proteins in mouse retinal extracts (6 retinas pooled from 3 WT or Myo1c-KO mice) in RIPA buffer; anti-rhodopsin or mouse/rabbit IgG overnight at 4 °C, protein G agarose; immunoblot for MYO1C
[2] = target: rhodopsin overexpressed in HEK293 cells (pcDNA3 rod opsin construct) (UniProt P08100); test: far-Western, overlay or dot blot; lysate of HEK293 cells overexpressing rhodopsin (or empty pcDNA3 vector) separated by SDS-PAGE and transferred to a membrane; overlaid with 5 µg purified recombinant full-length MYO1C, 4 °C, 4 h; detected with MYO1C antibody; only the binder purified
[3] = target: mammalian-expressed and purified Flag rhodopsin (UniProt P08100); test: ELISA; 100 ng purified rhodopsin coated on Maxisorp wells at 4 °C overnight; blocked with 5% BSA; 200 ng MYO1C protein, 4 h, 37 °C; detected with MYO1C antibody, absorbance at 450 nm; both purified

Substance | binding [1] | binding [2] | binding [3]
MYO1C (unconventional myosin 1C), endogenous in mouse retina (from UniProt Q9WTI7 1-1063) | binds |  | 
baculovirus-produced purified recombinant full-length mouse MYO1C protein (from UniProt Q9WTI7 1-1063) |  | binds | binds
